Paper doi:10.1101/2020.04.03.023861
Like-named read-outs stand apart in the source and are kept apart here. These are yes or no findings as the source states them, for the method shown. For some assays here: In cells and extracts the contact can be indirect. Some results given as binding are weak or reduced against the parent protein; the word gives no strength. For some assays here: Tags and fused reporters may be left off the sequences shown.

The chains behind the UniProt entries cited, without tags or fusion partners. Where a name states a change or a piece, a line headed by the entry shows the natural chain unless it says otherwise.
UniProt P25705: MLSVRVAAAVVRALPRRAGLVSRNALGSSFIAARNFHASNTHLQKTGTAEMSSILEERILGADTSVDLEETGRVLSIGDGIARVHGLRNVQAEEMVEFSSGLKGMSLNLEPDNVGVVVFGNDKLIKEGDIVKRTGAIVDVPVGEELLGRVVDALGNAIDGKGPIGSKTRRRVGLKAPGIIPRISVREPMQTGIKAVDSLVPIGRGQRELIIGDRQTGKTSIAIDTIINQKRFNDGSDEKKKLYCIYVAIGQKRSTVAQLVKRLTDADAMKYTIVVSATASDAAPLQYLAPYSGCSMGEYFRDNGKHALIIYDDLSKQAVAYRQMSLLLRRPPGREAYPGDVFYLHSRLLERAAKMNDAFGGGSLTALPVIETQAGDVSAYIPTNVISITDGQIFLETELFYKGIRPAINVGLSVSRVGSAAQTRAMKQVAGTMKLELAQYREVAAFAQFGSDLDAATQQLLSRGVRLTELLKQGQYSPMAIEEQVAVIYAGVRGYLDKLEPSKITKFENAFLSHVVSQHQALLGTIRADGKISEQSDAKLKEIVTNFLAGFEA

T1: TMEM70 (endogenous) (human (endogenous in HEK293T and 143B)) (UniProt Q9BUB7)
T1 sequence: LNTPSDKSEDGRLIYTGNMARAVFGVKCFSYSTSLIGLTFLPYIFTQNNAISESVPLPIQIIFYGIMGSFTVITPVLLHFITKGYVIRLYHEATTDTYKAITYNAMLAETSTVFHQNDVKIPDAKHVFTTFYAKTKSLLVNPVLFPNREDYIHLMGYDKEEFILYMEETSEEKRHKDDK

T2: TMEM70-FLAG (human) (UniProt Q9BUB7)
T2 sequence: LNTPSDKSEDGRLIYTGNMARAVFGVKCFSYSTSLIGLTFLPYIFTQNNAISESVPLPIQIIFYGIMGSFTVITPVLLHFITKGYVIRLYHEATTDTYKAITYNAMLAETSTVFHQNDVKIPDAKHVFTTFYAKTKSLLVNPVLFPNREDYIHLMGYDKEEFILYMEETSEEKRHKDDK

T3: TMEM70 (untagged, exogenous) (human) (UniProt Q9BUB7)
T3 sequence: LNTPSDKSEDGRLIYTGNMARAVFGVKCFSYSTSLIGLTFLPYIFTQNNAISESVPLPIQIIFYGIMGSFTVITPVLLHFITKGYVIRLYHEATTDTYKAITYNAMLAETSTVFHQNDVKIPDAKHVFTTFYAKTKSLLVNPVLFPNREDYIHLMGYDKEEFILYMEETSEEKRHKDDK

B1: TMEM70 (endogenous) (protein, UniProt Q9BUB7 82-260)
chain: LNTPSDKSEDGRLIYTGNMARAVFGVKCFSYSTSLIGLTFLPYIFTQNNAISESVPLPIQIIFYGIMGSFTVITPVLLHFITKGYVIRLYHEATTDTYKAITYNAMLAETSTVFHQNDVKIPDAKHVFTTFYAKTKSLLVNPVLFPNREDYIHLMGYDKEEFILYMEETSEEKRHKDDK
B2: TMEM70-FLAG (protein, UniProt Q9BUB7 82-260)
chain: LNTPSDKSEDGRLIYTGNMARAVFGVKCFSYSTSLIGLTFLPYIFTQNNAISESVPLPIQIIFYGIMGSFTVITPVLLHFITKGYVIRLYHEATTDTYKAITYNAMLAETSTVFHQNDVKIPDAKHVFTTFYAKTKSLLVNPVLFPNREDYIHLMGYDKEEFILYMEETSEEKRHKDDK
B3: TMEM70 (untagged, exogenous) (protein, UniProt Q9BUB7 82-260)
chain: LNTPSDKSEDGRLIYTGNMARAVFGVKCFSYSTSLIGLTFLPYIFTQNNAISESVPLPIQIIFYGIMGSFTVITPVLLHFITKGYVIRLYHEATTDTYKAITYNAMLAETSTVFHQNDVKIPDAKHVFTTFYAKTKSLLVNPVLFPNREDYIHLMGYDKEEFILYMEETSEEKRHKDDK

Tests used:
[1] = biological target: T1, TMEM70 (endogenous) (human (endogenous in HEK293T and 143B)); experiment: native gel or EMSA
[2] = biological target: fully assembled ATP synthase (human (endogenous in HEK293T and 143B)) (UniProt P25705); experiment: native gel or EMSA
[3] = biological target: T1, TMEM70 (endogenous) (human (endogenous in HEK293T and 143B)); experiment: native gel or EMSA; remark: listed apart in the source
[4] = biological target: fully assembled ATP synthase (human (endogenous in HEK293T and 143B)) (UniProt P25705); experiment: native gel or EMSA; remark: listed apart in the source
[5] = biological target: T1, TMEM70 (endogenous) (human (endogenous in HEK293T and 143B)); experiment: native gel or EMSA; remark: listed apart in the source
TMEM70-FLAG (human) [6] = biological target: T2, TMEM70-FLAG (human); experiment: native gel or EMSA
TMEM70-FLAG (human) [7] = biological target: T2, TMEM70-FLAG (human); experiment: co-IP + native gel or EMSA
[8] = biological target: T3, TMEM70 (untagged, exogenous) (human); experiment: detergent-resistant band of doubled size on SDS-PAGE and western blot
[9] = biological target: T3, TMEM70 (untagged, exogenous) (human); experiment: native gel or EMSA

Binder	binding [1]	binding [2]	binding [3]	binding [4]	binding [5]	binding (TMEM70-FLAG (human) [6])	binding (TMEM70-FLAG (human) [7])	binding [8]	binding [9]
B1	binds	no binding	binds	no binding	binds	–	–	–	–
B2	–	no binding	–	–	–	binds	binds	–	–
B3	–	no binding	–	–	–	–	–	binds	binds
